# Where a name gives a salt, the structure may show the parent alone. This is one part of the list. Single values are uncertain here, since repeats match poorly.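 ReNCell VM, a human fetal ventral-midbrain neural progenitor line, was differentiated without mitogens. Blinded raters scored images stained for doublecortin (early neurons) or tyrosine hydroxylase (dopaminergic neurons) against untreated wells (0 = no change). Scores were averaged across repeats and both raters, and compounds averaging 2 or more were selected as hits for retesting.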
# Columns and labels:
# [1] = test system: ReNCell VM; experiment: neuronal differentiation score (DCX+ cell fraction vs untreated, manual image score) (score (-3 to 3)); higher = more neuronal differentiation; conditions: 2 uM, 2 weeks
# [2] = test system: ReNCell VM; experiment: dopaminergic neuron differentiation score (TH+ cell fraction vs untreated, manual image score) (score (0 to 3)); higher = more TH+ dopaminergic neuron differentiation; conditions: 2 uM, 4 weeks, BDNF 10 ng/ml + GDNF 10 ng/ml
compound,measurement,setting,value
CC[C@H]1OC(=O)[C@H](C)[C@@H](O[C@H]2C[C@@](C)(OC)[C@@H](O)[C@H](C)O2)[C@H](C)[C@@H](O[C@@H]2O[C@H](C)C[C@H](N(C)C)[C@H]2O)[C@](C)(O)C[C@@H](C)CN(C)[C@H](C)[C@@H](O)[C@]1(C)O [Azithromycin],neuronal differentiation score,[1]; library: Prestwick,inactive: 0
same,dopaminergic neuron differentiation score,[2]; library: Prestwick,inactive: 0
Cn1c(=O)c2c(ncn2C)n(C)c1=O,neuronal differentiation score,[1]; library: Spectrum,inactive: 0
same,dopaminergic neuron differentiation score,[2]; library: Spectrum,inactive: 0
CSC(=N)N [S-Methylisothiourea hemisulfate],neuronal differentiation score,[1]; library: LOPAC,inactive: 0
same,dopaminergic neuron differentiation score,[2]; library: LOPAC,inactive: 0
COc1ccc(-c2c(O)c3c(OC)c4c(cc3oc2=O)OC(C)(C)C=C4)cc1,neuronal differentiation score,[1]; library: Spectrum,inactive: 0
same,dopaminergic neuron differentiation score,[2]; library: Spectrum,inactive: 0
COc1ccc(CCN(C)CCCC(C#N)(c2ccc(OC)c(OC)c2)C(C)C)cc1OC (stereo unspecified),neuronal differentiation score,[1]; library: Spectrum,inactive: 0
same,dopaminergic neuron differentiation score,[2]; library: Spectrum,inactive: 0
c1ccc2c(c1)CN1CCCC1=N2,neuronal differentiation score,[1]; library: Spectrum,inactive: 0
same,dopaminergic neuron differentiation score,[2]; library: Spectrum,inactive: 0
"CCCCS(=N)(=O)CCC(N)C(=O)O (racemic) [DL-Buthionine-[S,R]-sulfoximine]",neuronal differentiation score,[1]; library: LOPAC,inactive: 0
same,dopaminergic neuron differentiation score,[2]; library: LOPAC,inactive: 0
"CCCC(=O)Nc1ncnc2c1ncn2[C@@H]1O[C@@H]2COP(=O)(O)O[C@H]2[C@H]1OC(=O)CCC [Dibutyryl-cAMP, sodium salt]",neuronal differentiation score,[1]; library: Tocriscreen,inactive: -1
same,dopaminergic neuron differentiation score,[2]; library: Tocriscreen,inactive: 0
Nc1ncnc2c1ncn2[C@@H]1O[C@H](CO)[C@@H](O)[C@@H]1O,neuronal differentiation score,[1]; library: Spectrum,inactive: 0
same,dopaminergic neuron differentiation score,[2]; library: Spectrum,inactive: 0
CC(=O)Nc1ccccc1C(=O)C(=O)O [(2-acetylamino-phenyl)-oxo-acetic acid],neuronal differentiation score,[1]; library: Natural,inactive: 0
same,dopaminergic neuron differentiation score,[2]; library: Natural,inactive: 0
OC(CCN1CCCCC1)(c1ccccc1)C1CCCCC1 (stereo unspecified) [Trihexyphenidyl hydrochloride],neuronal differentiation score,[1]; library: LOPAC,inactive: 0
same,dopaminergic neuron differentiation score,[2]; library: LOPAC,inactive: 0
N=C(NCCCCCCNC(=N)NC(=N)Nc1ccc(Cl)cc1)NC(=N)Nc1ccc(Cl)cc1,neuronal differentiation score,[1]; library: Spectrum,inactive: 0
same,dopaminergic neuron differentiation score,[2]; library: Spectrum,inactive: 0
CC(=O)O[C@H]1C[C@@H](OC(C)=O)C(C)(C)C2CC(=O)[C@]3(C)C(CC[C@@]4(C)[C@H](c5ccoc5)OC(=O)[C@H]5O[C@]543)[C@]21C (stereo partly specified),neuronal differentiation score,[1]; library: Spectrum,inactive: 0
same,dopaminergic neuron differentiation score,[2]; library: Spectrum,inactive: 0
O[C@H]1[C@H](O)[C@@H](O)[C@H](O)[C@@H](O)[C@H]1O,neuronal differentiation score,[1]; library: Spectrum,inactive: 0
same,dopaminergic neuron differentiation score,[2]; library: Spectrum,inactive: 0
Cc1ccc(-c2cc(C(F)(F)F)nn2-c2ccc(S(N)(=O)=O)cc2)cc1,neuronal differentiation score,[1]; library: Spectrum,inactive: 0
same,dopaminergic neuron differentiation score,[2]; library: Spectrum,inactive: 0
COc1ccc(/C=C/C(=O)c2cc(O)ccc2O)cc1,neuronal differentiation score,[1]; library: Spectrum,inactive: 0
same,dopaminergic neuron differentiation score,[2]; library: Spectrum,inactive: 0
CCCC(CCC)C(=O)O [Valproic acid sodium],neuronal differentiation score,[1]; library: LOPAC,inactive: 0
same,dopaminergic neuron differentiation score,[2]; library: LOPAC,inactive: 0
O=C(Nc1cccc2cccnc12)c1ccc(N2C(=O)[C@@H]3[C@H](C2=O)[C@@H]2C=C[C@H]3C2)cc1 [endo-IWR 1],neuronal differentiation score,[1]; library: Tocriscreen,inactive: 0
same,dopaminergic neuron differentiation score,[2]; library: Tocriscreen,inactive: 0
COC(=O)Nc1nc2cc(C(=O)c3ccccc3)ccc2[nH]1 [Mebendazole],neuronal differentiation score,[1]; library: Prestwick,inactive: 0
same,dopaminergic neuron differentiation score,[2]; library: Prestwick,inactive: 0
NC[C@@H]1O[C@H](O[C@H]2[C@@H](O)[C@H](O[C@@H]3[C@@H](O)[C@H](N)C[C@H](N)[C@H]3O[C@H]3O[C@H](CO)[C@@H](O)[C@H](O)[C@H]3N)O[C@@H]2CO)[C@H](N)[C@@H](O)[C@@H]1O,neuronal differentiation score,[1]; library: Spectrum,inactive: 0
same,dopaminergic neuron differentiation score,[2]; library: Spectrum,inactive: 0
O=C1C=CC(=C(c2ccc(O)cc2)c2ccc(O)cc2)C=C1,neuronal differentiation score,[1]; library: Spectrum,inactive: 0
same,dopaminergic neuron differentiation score,[2]; library: Spectrum,inactive: 0
O=C(OOC(=O)c1ccccc1)c1ccccc1,neuronal differentiation score,[1]; library: Spectrum,inactive: 0
same,dopaminergic neuron differentiation score,[2]; library: Spectrum,inactive: 0
Cc1cc(Cn2cnc3c2C[C@@H](C(=O)O)N(C(=O)C(c2ccccc2)c2ccccc2)C3)ccc1N,neuronal differentiation score,[1]; library: LOPAC,inactive: 0
same,dopaminergic neuron differentiation score,[2]; library: LOPAC,inactive: 0
COc1cc(O)ccc1C(C)=O,neuronal differentiation score,[1]; library: Spectrum,inactive: 0
same,dopaminergic neuron differentiation score,[2]; library: Spectrum,inactive: 0
OCCN1CCN(CC/C=C2/c3ccccc3Sc3ccc(Cl)cc32)CC1 [Zuclopenthixol hydrochloride],neuronal differentiation score,[1]; library: Prestwick,inactive: 0
same,dopaminergic neuron differentiation score,[2]; library: Prestwick,inactive: 0
Cc1cc(Cn2cnc3c2CC(C(=O)O)N(C(=O)C(c2ccccc2)c2ccccc2)C3)ccc1N(C)C (stereo unspecified),neuronal differentiation score,[1]; library: Tocriscreen,inactive: 0
same,dopaminergic neuron differentiation score,[2]; library: Tocriscreen,inactive: 0
COc1ccc(C(=O)NCc2ccc(OCCN(C)C)cc2)cc1OC [Itopride],neuronal differentiation score,[1]; library: Prestwick,inactive: 0
same,dopaminergic neuron differentiation score,[2]; library: Prestwick,inactive: 0
CCC1(c2ccccc2)NC(=O)N(C)C1=O (stereo unspecified) [Mephenytoin],neuronal differentiation score,[1]; library: Prestwick,inactive: 0
same,dopaminergic neuron differentiation score,[2]; library: Prestwick,inactive: 0
CNc1ccccc1C(=O)N1CCc2c([nH]c3ccccc23)C1=O,neuronal differentiation score,[1]; library: Spectrum,inactive: 0
same,dopaminergic neuron differentiation score,[2]; library: Spectrum,inactive: 0
O=C(O)CCCc1ccccc1 [sodium 4-Phenylbutyrate],neuronal differentiation score,[1]; library: Tocriscreen,inactive: 0
same,dopaminergic neuron differentiation score,[2]; library: Tocriscreen,inactive: 0
CCCCC[C@H](CC(=O)NO)C(=O)N[C@H](C(=O)N1CCC[C@H]1CO)C(C)C,neuronal differentiation score,[1]; library: Spectrum,inactive: 0
same,dopaminergic neuron differentiation score,[2]; library: Spectrum,inactive: 0
Cc1nccn1CC1CCc2c(c3ccccc3n2C)C1=O (stereo unspecified) [Ondansetron Hydrochloride],neuronal differentiation score,[1]; library: Prestwick,inactive: 0
same,dopaminergic neuron differentiation score,[2]; library: Prestwick,inactive: 0
COc1ccc2cc([C@@H](C)C(=O)O)ccc2c1 [(R) -Naproxen sodium salt],neuronal differentiation score,[1]; library: Prestwick,inactive: 0
same,dopaminergic neuron differentiation score,[2]; library: Prestwick,inactive: 0

# A section from the list above, as a working copy:
compound,measurement,setting,value
O=C1C=CC(=C(c2ccc(O)cc2)c2ccc(O)cc2)C=C1,dopaminergic neuron differentiation score,[2]; library: Spectrum,inactive: 0
O=C(OOC(=O)c1ccccc1)c1ccccc1,neuronal differentiation score,[1]; library: Spectrum,inactive: 0
same,dopaminergic neuron differentiation score,[2]; library: Spectrum,inactive: 0
Cc1cc(Cn2cnc3c2C[C@@H](C(=O)O)N(C(=O)C(c2ccccc2)c2ccccc2)C3)ccc1N,neuronal differentiation score,[1]; library: LOPAC,inactive: 0
same,dopaminergic neuron differentiation score,[2]; library: LOPAC,inactive: 0
COc1cc(O)ccc1C(C)=O,neuronal differentiation score,[1]; library: Spectrum,inactive: 0
same,dopaminergic neuron differentiation score,[2]; library: Spectrum,inactive: 0
OCCN1CCN(CC/C=C2/c3ccccc3Sc3ccc(Cl)cc32)CC1 [Zuclopenthixol hydrochloride],neuronal differentiation score,[1]; library: Prestwick,inactive: 0
same,dopaminergic neuron differentiation score,[2]; library: Prestwick,inactive: 0
Cc1cc(Cn2cnc3c2CC(C(=O)O)N(C(=O)C(c2ccccc2)c2ccccc2)C3)ccc1N(C)C (stereo unspecified),neuronal differentiation score,[1]; library: Tocriscreen,inactive: 0
same,dopaminergic neuron differentiation score,[2]; library: Tocriscreen,inactive: 0
COc1ccc(C(=O)NCc2ccc(OCCN(C)C)cc2)cc1OC [Itopride],neuronal differentiation score,[1]; library: Prestwick,inactive: 0
same,dopaminergic neuron differentiation score,[2]; library: Prestwick,inactive: 0
CCC1(c2ccccc2)NC(=O)N(C)C1=O (stereo unspecified) [Mephenytoin],neuronal differentiation score,[1]; library: Prestwick,inactive: 0
same,dopaminergic neuron differentiation score,[2]; library: Prestwick,inactive: 0
CNc1ccccc1C(=O)N1CCc2c([nH]c3ccccc23)C1=O,neuronal differentiation score,[1]; library: Spectrum,inactive: 0
same,dopaminergic neuron differentiation score,[2]; library: Spectrum,inactive: 0
O=C(O)CCCc1ccccc1 [sodium 4-Phenylbutyrate],neuronal differentiation score,[1]; library: Tocriscreen,inactive: 0
same,dopaminergic neuron differentiation score,[2]; library: Tocriscreen,inactive: 0
CCCCC[C@H](CC(=O)NO)C(=O)N[C@H](C(=O)N1CCC[C@H]1CO)C(C)C,neuronal differentiation score,[1]; library: Spectrum,inactive: 0
